The text below walks through data of patent US20250000818A1, “NEW SYNERGISTIC COMBINATIONS BASED ON FENM AND AN ACETYLCHOLINESTERASE INHIBITOR” (REST Therapeutics, priority 2021, published 2025).

The subject of experiment [1] is mice intoxicated with Aβ25-35 oligomers. The experiment can be described thus: Y-labyrinth spontaneous alternation test (YMT), short-term spatial working memory, Aβ25-35 oligomer ICV intoxication model. The format is in vivo, male Swiss OF-1 mice.
Experiment [2] has the same test system. Put plainly: Passive avoidance test (PAT), long-term contextual memory, Aβ25-35 oligomer ICV intoxication model. The format is in vivo, male Swiss OF-1 mice.

Where a name gives a salt, the structure may show the parent alone.

In the case of `COc1cc2c(cc1OC)C(=O)C(CC1CCN(Cc3ccccc3)CC1)C2` (stereo not shown) [DPZ, donepezil hydrochloride], the “effect on percentage of alternation of intoxicated mice” value in experiment [1] (0.01 mg/kg) is “no improvement was observed”; in experiment [1] (0.03 mg/kg) it was “does not confer a statistically significant improvement”; in experiment [1] (0.1 mg/kg), “confers an improvement in mnesic symptoms”. Moreover, the “PP (%) percentage protection” value is recorded as 10.6 ± 34.0% in experiment [1] (0.03 mg/kg IP); 46.9 ± 26.4% in experiment [1] (0.1 mg/kg IP); 58.9 ± 33.7^• % in experiment [1] (0.3 mg/kg IP); 19.7 ± 17.2% in experiment [2] (0.03 mg/kg IP); 19.6 ± 21.6% in experiment [2] (0.1 mg/kg IP); 42.2 ± 21.4% in experiment [2] (0.3 mg/kg IP). The “effect on passive avoidance performance (latency) of intoxicated mice” value in experiment [2] (1 mg/kg, highest dose tested) is given as “effective in counteracting the amnesic effects”.
